Values from PubChem BioAssay AID652243 (Drosophila RNAi Screening Center, 2013).

Assay: 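Fly genes required for human androgen receptor driven transcription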 (primary screen)
Cells: Drosophila S2R+ cells
Reagent: long dsRNA against Drosophila genes
Timing: 72 h (48 h, then 24 h hormone)
Treatment: synthetic androgen R1881 at 10 nM for 24 h
Detection: 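Firefly light from an androgen-responsive reporter and Renilla control light per well, raw and unnormalised, for each of two replicates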
Reading the numbers: firefly reporter light: higher = more light from androgen-responsive reporter; Renilla control light: higher = more constitutive control signal (cell number, transfection)
Call rule: 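Hit when the log firefly-to-Renilla ratio dropped or increased by a fixed fold versus the mean of GFP or LacZ controls across duplicate plates; lowering cut given as 1.5 and as 3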
Calls: active = hit: reporter lowered or raised; inactive = no hit
In all, the deposit lists about 24,000 reagents; shown is an unselected part of those with a known target gene and a result. Of all reagents, 246 (1%) are marked active. 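Plates not normalised; calls are printed but the firefly/Renilla ratio behind them is not deposited; fold cut for lowering reported inconsistently.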 Raw values vary from plate to plate and are shown uncorrected. Entries without a mark were called inactive. A plus sign joins genes that one reagent is predicted to hit. Not stated in the record: the amount of reagent.

Mef2 [DRSC07468]
- firefly reporter light, replicate 1: 5.36e5
- firefly reporter light, replicate 2: 4.03e5
- Renilla control light, replicate 1: 1.68e6
- Renilla control light, replicate 2: 1.47e6

Mef2 [DRSC25554]
- firefly reporter light, replicate 1: 5.51e5
- firefly reporter light, replicate 2: 6.52e5
- Renilla control light, replicate 1: 5.29e5
- Renilla control light, replicate 2: 5.28e5

CG8152 [DRSC07083]
- firefly reporter light, replicate 1: 59642
- firefly reporter light, replicate 2: 69074
- Renilla control light, replicate 1: 1.39e6
- Renilla control light, replicate 2: 1.39e6

CR42722 + CR42723 + mRpS5 + 1 more [DRSC38640]
- firefly reporter light, replicate 1: 9.99e5
- firefly reporter light, replicate 2: 9.04e5
- Renilla control light, replicate 1: 2.69e6
- Renilla control light, replicate 2: 2.28e6

CG11498 [DRSC14315]
- firefly reporter light, replicate 1: 86750
- firefly reporter light, replicate 2: 1.05e5
- Renilla control light, replicate 1: 1.12e6
- Renilla control light, replicate 2: 1.69e6

CG14314 [DRSC14793]
- firefly reporter light, replicate 1: 76450
- firefly reporter light, replicate 2: 1.20e5
- Renilla control light, replicate 1: 1.13e6
- Renilla control light, replicate 2: 1.48e6

2 entries from above, ordered by “firefly reporter light, replicate 1”, lowest first.
CG11498 [DRSC14315]
- firefly reporter light, replicate 1: 86750
- firefly reporter light, replicate 2: 1.05e5
- Renilla control light, replicate 1: 1.12e6
- Renilla control light, replicate 2: 1.69e6

CR42722 + CR42723 + mRpS5 + 1 more [DRSC38640]
- firefly reporter light, replicate 1: 9.99e5
- firefly reporter light, replicate 2: 9.04e5
- Renilla control light, replicate 1: 2.69e6
- Renilla control light, replicate 2: 2.28e6

Additional results follow:
CG12773 [DRSC18580]
- firefly reporter light, replicate 1: 81732
- firefly reporter light, replicate 2: 66217
- Renilla control light, replicate 1: 5.47e5
- Renilla control light, replicate 2: 3.48e5

CG12773 [DRSC24900]
- firefly reporter light, replicate 1: 9.85e5
- firefly reporter light, replicate 2: 7.91e5
- Renilla control light, replicate 1: 1.34e6
- Renilla control light, replicate 2: 1.38e6

gogo [DRSC10070]
- firefly reporter light, replicate 1: 2.05e5
- firefly reporter light, replicate 2: 1.53e5
- Renilla control light, replicate 1: 1.64e6
- Renilla control light, replicate 2: 1.50e6

gogo [DRSC10071]
- firefly reporter light, replicate 1: 2.60e5
- firefly reporter light, replicate 2: 2.35e5
- Renilla control light, replicate 1: 2.30e6
- Renilla control light, replicate 2: 1.98e6

shtd [DRSC20166]
- firefly reporter light, replicate 1: 81643
- firefly reporter light, replicate 2: 96186
- Renilla control light, replicate 1: 6.40e5
- Renilla control light, replicate 2: 7.46e5

shtd [DRSC27760]
- firefly reporter light, replicate 1: 2.80e5
- firefly reporter light, replicate 2: 3.06e5
- Renilla control light, replicate 1: 5.69e5
- Renilla control light, replicate 2: 7.67e5
